Results taken from patent US20080103095A1.

Experiments:
[1] = molecular target: recombinant hsc70 (StressGen Biotechnological Corp); assay: in vitro, purified proteins
[2] = molecular target: recombinant hsc70 (StressGen Biotechnological Corp); assay: co-immunoprecipitation of purified protein pairs
[3] = molecular target: recombinant hsc70 (StressGen Biotechnological Corp); assay: co-immunoprecipitation of purified protein pairs, anti-His blot

- binding [1]: binds
- binding [2]: binds
- binding [3]: binds
B1: recombinant His-tagged full-length hsp110 expressed in E. coli (Example 7) (protein, UniProt Q60446 1-858, looked up)
chain: MSVVGLDVGSQSCYIAVARAGGIETIANEFSDRCTPSVISFGPKNRTIGVAAKNQQITHANNTVSSFKRFHGRAFSDPFIQKEKESLSYDLVPMKNGGVGIKVMYMDEEHLFSVEQITAMLLTKLKETAENNLKKPVTDCVISVPSFFTDAERRSVLDAAQIVGLNCLRLMNDMTAVALNYGIYKQDLPNADEKPQGSGVCGHGPSSFQVSACAFNKGKLKVLGTAFDPFLGGKNFDEKLVEHFCAEFKTKYKLDAKSKIRALLRLHQECEKLKKLMSSNSTDLPLNIECFMNDKDVSAKMNRSQFEELCAELLQKIEVPLHSLMEQTHLKTEDVSAIEIVGGATRIPAVKERIAKFFGKDVSTTLNADEAVARGCALQCAILSPAFKVREFSVTDAVPFPISLVWNHDSEETEGVHEVFSRNHAAPFSKVLTFLRRGPFELEAFYSDPQGVPYPEAKIGRFVVQNVSAQKDGEKSKVKVKVRVNTHGIFTISTASMVEKVPTEEDDGSSVEADMECPNQKPAESSDVDKNSQQDNSEAGTQPQVQTDGQQTSQSPPSPELPSEENKIPDADKANEKKVDQPPEAKKPKIKVVNVELPVEANLVWQLGRDLLNMYIETEGKMIMQDKLEKERNDAKNAVEECVYEFRDKLCGPYEKFICQQEHEKFLRLLTETEDWLYEEGEDQAKQAYIDKLEELMKMGNPVKVRFQEAEERPKVLEELGQRLQHYAKIAADFRSKDEKYNHIDESEMKKVEKSVNEVMEWMNNVMNAQAKRSLDQDPVVRTHEIRAKVKELNNVCEPVVNQPKPKIESPKLERTPNGPNLDKKEDLEGKDNFGAEAPHQNGECHPNEKGSVNMDLD

No constants are given. Whether binding was seen depends on the method and setting. Binding calls can cover weak binding; strength is not graded here. Sequences can lack the tags named with a protein. For part of these data: In cells and extracts the contact can be indirect.
